Experimental data as given in article PMC7195483.
Results are given in words; binding and its absence hold for the method and conditions named. For some assays here: A result given as binding can be weak or reduced; the word gives no strength. For some assays here: Sequences can lack the tags named with a protein.

How the values were obtained:
[1] = molecular target: T1, Set1 fragment F1 (aa 1–236) fused to Gal4 BD (S. cerevisiae) (UniProt P38827); assay: two-hybrid; PJ69-4A carrying swd2Δ (lethality suppressed by Sen1 amino acids 1890–2092); HIS3 reporter
T1 sequence: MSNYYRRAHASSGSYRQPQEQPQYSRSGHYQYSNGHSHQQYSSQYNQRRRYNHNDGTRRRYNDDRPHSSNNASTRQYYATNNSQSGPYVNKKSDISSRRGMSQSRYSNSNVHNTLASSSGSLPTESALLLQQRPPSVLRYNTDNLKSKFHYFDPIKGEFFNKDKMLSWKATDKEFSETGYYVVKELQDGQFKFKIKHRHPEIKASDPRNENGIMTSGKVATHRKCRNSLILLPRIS

[2] = molecular target: T2, full length Set1 fused to the Gal4 DNA binding domain (S. cerevisiae) (UniProt P38827); assay: as above
T2 sequence: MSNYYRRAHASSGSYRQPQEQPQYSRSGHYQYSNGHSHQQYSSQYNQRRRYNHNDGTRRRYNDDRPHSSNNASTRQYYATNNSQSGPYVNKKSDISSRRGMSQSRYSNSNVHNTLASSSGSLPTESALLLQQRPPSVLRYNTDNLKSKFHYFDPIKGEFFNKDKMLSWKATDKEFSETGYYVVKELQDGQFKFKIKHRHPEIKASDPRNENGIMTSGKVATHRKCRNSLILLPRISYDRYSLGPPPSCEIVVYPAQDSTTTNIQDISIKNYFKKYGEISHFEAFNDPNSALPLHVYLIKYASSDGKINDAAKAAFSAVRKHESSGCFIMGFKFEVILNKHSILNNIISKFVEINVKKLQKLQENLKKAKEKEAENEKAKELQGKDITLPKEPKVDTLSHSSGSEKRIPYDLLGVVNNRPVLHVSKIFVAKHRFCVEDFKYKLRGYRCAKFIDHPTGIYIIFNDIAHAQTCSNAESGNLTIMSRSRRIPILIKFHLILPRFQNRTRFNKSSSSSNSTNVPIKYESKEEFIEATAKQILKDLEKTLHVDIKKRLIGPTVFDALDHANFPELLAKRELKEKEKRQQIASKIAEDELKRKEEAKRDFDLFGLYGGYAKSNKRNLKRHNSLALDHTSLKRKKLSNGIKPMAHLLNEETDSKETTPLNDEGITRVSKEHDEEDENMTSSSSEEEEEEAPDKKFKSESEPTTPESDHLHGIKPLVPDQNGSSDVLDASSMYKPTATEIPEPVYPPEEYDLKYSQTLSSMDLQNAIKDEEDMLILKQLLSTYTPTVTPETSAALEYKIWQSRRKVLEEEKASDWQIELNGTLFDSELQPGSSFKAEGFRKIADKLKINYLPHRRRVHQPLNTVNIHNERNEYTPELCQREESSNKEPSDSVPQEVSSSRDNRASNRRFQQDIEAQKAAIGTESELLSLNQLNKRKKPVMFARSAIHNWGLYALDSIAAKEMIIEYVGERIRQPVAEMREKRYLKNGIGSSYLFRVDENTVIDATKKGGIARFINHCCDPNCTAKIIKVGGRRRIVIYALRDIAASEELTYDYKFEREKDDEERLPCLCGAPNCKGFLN

[3] = molecular target: T2, full length Set1 fused to the Gal4 DNA binding domain (S. cerevisiae); assay: two-hybrid; genome-wide screen of a S. cerevisiae genomic library (Hybrigenics) with Gal4 BD–Set1 (pB66) as bait
[4] = molecular target: T3, Bre2 two-hybrid construct tested with the 14-CTD repeat construct (S. cerevisiae) (UniProt P43132); assay: two-hybrid; Gal4 BD fusions with Gal4 AD fusions in reporter strains PJ69-4A or CG1945; HIS3 and ADE2 reporters, scored after 2 or 3 days; 5 or 20 mM 3-AT for stringency; also in PJ69-4A with wild-type or F250A Swd2 (reduced in F250A)
T3 sequence: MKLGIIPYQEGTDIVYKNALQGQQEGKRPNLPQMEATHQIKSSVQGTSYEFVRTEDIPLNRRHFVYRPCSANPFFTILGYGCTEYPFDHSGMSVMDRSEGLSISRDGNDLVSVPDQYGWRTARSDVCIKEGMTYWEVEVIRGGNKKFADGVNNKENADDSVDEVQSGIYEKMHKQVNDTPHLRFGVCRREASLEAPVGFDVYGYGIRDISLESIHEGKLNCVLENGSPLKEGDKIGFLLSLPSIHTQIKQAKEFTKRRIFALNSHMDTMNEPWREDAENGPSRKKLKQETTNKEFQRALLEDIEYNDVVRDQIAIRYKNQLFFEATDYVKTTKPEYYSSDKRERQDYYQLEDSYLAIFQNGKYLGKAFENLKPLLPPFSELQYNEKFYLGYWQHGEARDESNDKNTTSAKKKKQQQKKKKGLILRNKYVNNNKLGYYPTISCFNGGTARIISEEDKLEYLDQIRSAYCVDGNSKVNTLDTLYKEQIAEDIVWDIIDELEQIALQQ

[5] = molecular target: T4, Sdc1 two-hybrid construct tested with the 14-CTD repeat construct (S. cerevisiae) (UniProt Q03323); assay: as above
T4 sequence: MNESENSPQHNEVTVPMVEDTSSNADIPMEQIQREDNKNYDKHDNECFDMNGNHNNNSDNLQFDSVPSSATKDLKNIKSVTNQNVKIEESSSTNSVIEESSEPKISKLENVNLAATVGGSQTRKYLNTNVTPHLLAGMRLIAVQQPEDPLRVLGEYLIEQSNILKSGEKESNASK

[6] = molecular target: T1, Set1 fragment F1 (aa 1–236) fused to Gal4 BD (S. cerevisiae); assay: as above
[7] = molecular target: T5, Set1 fragment F4 (aa 770–945) fused to Gal4 BD (S. cerevisiae) (UniProt P38827); assay: as above
T5 sequence: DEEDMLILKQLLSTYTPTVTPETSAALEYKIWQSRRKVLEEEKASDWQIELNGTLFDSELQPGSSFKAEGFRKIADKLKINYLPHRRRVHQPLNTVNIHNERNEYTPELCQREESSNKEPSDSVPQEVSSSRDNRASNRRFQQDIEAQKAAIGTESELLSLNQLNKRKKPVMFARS

[8] = molecular target: T6, Set1(1–200) fused to Gal4 BD (S. cerevisiae) (UniProt P38827); assay: as above
T6 sequence: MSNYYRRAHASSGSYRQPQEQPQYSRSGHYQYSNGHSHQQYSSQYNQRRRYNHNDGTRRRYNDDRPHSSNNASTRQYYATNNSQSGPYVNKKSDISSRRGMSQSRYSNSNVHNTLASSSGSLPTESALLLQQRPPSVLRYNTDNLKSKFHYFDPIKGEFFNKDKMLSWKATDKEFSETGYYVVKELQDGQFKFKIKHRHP

[9] = molecular target: T7, Shg1 two-hybrid construct tested with the 14-CTD repeat construct (S. cerevisiae) (UniProt P38337); assay: as above
T7 sequence: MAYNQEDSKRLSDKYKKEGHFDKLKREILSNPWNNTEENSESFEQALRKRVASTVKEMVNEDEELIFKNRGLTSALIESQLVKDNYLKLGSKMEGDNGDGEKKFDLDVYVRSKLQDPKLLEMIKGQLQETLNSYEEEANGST

[10] = molecular target: T8, Spp1 two-hybrid construct tested with the 14-CTD repeat construct (S. cerevisiae) (UniProt Q03012); assay: as above
T8 sequence: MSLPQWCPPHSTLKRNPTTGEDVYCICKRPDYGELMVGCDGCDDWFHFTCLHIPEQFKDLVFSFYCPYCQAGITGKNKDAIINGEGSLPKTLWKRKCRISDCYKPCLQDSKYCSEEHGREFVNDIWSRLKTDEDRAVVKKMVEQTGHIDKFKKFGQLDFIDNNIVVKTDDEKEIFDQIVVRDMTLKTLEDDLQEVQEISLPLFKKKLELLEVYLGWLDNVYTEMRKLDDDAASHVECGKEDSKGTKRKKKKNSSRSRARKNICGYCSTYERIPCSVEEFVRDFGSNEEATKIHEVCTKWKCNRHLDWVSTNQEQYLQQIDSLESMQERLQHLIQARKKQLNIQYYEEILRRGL

[11] = molecular target: T9, Swd1 two-hybrid construct tested with the 14-CTD repeat construct (S. cerevisiae) (UniProt P39706); assay: as above
T9 sequence: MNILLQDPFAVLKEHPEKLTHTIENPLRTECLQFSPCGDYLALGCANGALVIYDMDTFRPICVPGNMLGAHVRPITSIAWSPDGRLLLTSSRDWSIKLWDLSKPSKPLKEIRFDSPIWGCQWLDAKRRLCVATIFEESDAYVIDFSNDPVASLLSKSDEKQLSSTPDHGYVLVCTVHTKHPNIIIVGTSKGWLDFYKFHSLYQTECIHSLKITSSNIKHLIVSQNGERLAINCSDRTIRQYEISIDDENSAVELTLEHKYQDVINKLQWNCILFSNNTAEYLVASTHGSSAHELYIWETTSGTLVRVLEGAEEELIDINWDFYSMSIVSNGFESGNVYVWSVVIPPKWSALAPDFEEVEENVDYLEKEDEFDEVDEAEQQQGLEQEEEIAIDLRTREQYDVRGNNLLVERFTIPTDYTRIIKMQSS

[12] = molecular target: T10, Swd2 two-hybrid construct tested with the 14-CTD repeat construct (S. cerevisiae) (UniProt P36104); assay: as above
T10 sequence: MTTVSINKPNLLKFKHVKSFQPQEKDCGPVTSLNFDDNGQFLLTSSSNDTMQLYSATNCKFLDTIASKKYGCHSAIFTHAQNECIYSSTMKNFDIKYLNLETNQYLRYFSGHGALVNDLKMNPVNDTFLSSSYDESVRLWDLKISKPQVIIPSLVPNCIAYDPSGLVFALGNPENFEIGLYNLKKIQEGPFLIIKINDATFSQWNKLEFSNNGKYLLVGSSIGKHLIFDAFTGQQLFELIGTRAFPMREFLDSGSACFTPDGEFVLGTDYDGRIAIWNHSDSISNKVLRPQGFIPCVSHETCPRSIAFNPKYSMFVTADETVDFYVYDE

[13] = molecular target: T11, Swd3 two-hybrid construct tested with the 14-CTD repeat construct (S. cerevisiae) (UniProt P38123); assay: as above
T11 sequence: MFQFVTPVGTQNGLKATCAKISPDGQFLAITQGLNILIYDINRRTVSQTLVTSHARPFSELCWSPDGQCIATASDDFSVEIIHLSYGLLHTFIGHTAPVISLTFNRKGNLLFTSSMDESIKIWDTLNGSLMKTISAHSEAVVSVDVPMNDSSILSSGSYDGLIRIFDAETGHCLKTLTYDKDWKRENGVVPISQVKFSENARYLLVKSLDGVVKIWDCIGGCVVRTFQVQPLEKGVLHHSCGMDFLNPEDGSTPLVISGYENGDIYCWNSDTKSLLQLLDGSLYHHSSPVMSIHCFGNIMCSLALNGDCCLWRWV

[14] = molecular target: T2, full length Set1 fused to the Gal4 DNA binding domain (S. cerevisiae); assay: as above

binding [3]: binds
binding [4]: no binding
binding [5]: no binding
binding [6]: binds
binding [7]: no binding
binding [8]: binds
binding [9]: no binding
binding [10]: no binding
binding [11]: no binding
binding [12]: no binding
binding [13]: no binding
binding [14]: binds
Substance: 14-CTD repeat fragment of Rpb1 fused to the Gal4 activation domain (S. cerevisiae) (domain or fragment)
binding [1]: binds weakly
binding [2]: binds weakly
